Consider 37 targets from the supplement of paper PMC12819154, “High-throughput peptide-centric local stability assay extends protein–ligand identification to membrane proteins, tissues and bacteria” (Nature Structural & Molecular Biology, 2025).

By UniProt entry, the sequences of proteins in these tests, tags left out. Where a name states a change or a piece, a line headed by the entry shows the natural chain unless it says otherwise.
UniProt Q6IQ26: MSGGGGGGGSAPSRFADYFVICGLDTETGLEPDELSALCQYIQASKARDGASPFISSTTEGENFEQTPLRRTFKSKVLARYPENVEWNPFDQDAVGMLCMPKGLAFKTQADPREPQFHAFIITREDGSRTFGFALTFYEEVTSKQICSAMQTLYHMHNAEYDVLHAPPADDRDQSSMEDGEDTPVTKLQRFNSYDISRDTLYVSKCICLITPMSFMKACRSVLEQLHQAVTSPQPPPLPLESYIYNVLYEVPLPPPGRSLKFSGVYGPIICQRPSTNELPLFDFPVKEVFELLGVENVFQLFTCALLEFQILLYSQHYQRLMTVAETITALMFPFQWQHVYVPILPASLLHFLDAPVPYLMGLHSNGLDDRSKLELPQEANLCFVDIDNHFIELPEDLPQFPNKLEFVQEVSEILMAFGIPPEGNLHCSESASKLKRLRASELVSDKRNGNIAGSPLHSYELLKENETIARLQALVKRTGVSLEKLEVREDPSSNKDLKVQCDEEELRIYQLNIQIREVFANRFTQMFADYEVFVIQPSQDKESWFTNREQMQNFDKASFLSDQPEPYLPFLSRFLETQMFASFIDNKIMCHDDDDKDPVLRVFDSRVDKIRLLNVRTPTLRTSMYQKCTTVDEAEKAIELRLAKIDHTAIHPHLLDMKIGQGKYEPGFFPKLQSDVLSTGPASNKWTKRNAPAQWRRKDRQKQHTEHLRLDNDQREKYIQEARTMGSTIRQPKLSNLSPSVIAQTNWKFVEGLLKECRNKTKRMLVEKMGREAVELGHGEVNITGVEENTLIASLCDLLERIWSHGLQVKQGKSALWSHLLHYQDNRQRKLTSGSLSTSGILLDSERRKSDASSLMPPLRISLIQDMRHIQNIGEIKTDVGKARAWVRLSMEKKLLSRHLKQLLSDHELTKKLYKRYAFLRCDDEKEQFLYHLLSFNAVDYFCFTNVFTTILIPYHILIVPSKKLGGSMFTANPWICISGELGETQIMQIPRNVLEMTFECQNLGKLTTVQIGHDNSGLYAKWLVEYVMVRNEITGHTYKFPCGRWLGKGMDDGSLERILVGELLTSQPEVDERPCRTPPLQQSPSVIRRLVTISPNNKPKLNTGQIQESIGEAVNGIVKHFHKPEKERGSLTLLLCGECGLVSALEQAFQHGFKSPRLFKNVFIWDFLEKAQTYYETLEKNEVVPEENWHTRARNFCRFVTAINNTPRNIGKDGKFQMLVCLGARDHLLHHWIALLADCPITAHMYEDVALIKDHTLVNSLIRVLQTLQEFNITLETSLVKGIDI
UniProt Q6QEF8, whole entry: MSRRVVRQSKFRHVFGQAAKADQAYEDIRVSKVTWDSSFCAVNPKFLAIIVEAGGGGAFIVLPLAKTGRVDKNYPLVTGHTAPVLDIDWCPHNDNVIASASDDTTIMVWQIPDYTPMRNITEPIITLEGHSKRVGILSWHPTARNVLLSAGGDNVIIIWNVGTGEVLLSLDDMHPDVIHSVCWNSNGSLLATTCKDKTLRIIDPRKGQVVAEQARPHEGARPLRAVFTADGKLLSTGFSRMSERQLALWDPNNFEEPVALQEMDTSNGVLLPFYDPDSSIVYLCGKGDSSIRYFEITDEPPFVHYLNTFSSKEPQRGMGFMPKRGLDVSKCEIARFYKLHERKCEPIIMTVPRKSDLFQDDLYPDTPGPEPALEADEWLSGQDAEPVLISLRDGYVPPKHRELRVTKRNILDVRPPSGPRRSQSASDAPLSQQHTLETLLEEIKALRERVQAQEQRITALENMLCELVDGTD
UniProt Q6P3W2: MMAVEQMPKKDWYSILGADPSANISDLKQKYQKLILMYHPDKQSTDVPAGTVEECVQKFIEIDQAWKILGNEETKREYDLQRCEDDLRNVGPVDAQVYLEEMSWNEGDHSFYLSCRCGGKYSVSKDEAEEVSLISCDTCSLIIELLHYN
UniProt Q6P3W7: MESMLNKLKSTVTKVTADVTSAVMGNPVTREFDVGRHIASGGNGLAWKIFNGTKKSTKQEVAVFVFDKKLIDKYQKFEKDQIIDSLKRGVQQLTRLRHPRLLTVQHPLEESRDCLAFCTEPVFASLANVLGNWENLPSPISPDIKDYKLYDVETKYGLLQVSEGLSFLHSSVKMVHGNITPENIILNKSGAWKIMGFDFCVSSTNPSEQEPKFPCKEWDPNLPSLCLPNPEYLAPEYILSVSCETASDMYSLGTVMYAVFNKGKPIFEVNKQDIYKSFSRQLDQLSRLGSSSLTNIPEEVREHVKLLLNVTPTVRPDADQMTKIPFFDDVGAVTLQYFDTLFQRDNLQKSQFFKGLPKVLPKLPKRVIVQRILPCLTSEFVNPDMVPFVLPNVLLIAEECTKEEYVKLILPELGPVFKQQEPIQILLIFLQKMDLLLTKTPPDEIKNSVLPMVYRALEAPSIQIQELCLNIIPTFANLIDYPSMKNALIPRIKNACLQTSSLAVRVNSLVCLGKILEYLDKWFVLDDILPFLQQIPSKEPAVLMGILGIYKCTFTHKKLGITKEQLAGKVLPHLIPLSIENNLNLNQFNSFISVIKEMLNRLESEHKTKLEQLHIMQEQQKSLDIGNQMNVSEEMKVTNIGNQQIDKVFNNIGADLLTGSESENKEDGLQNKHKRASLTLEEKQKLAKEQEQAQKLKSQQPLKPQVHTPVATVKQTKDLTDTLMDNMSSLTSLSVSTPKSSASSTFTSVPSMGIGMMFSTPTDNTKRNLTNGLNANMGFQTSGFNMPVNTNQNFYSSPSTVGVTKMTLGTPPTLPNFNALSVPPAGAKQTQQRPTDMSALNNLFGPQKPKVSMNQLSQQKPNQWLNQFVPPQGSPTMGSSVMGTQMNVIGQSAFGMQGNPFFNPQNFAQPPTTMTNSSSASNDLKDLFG
UniProt Q6IPR3: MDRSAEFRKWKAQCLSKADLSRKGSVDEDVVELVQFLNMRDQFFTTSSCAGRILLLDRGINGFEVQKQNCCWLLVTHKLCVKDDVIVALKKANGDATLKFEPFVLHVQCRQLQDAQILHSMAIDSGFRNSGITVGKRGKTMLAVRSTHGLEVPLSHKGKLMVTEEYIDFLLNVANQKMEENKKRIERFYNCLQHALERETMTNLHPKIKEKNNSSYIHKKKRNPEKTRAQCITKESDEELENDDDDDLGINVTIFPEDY
UniProt Q6NVV1, whole entry: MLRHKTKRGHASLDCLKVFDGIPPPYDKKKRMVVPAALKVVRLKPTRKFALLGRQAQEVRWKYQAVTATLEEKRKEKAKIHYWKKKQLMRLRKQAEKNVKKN
UniProt Q6UX07: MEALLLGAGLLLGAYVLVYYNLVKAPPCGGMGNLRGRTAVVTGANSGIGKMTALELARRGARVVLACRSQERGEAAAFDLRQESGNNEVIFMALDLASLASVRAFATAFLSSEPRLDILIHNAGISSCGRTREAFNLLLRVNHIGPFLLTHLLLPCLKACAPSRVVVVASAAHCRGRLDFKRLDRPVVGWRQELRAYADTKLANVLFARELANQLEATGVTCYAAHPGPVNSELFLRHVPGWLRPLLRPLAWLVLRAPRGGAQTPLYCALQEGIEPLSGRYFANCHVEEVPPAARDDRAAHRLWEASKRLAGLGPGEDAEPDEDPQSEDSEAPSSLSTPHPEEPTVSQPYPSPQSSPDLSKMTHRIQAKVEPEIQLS
UniProt Q6P499: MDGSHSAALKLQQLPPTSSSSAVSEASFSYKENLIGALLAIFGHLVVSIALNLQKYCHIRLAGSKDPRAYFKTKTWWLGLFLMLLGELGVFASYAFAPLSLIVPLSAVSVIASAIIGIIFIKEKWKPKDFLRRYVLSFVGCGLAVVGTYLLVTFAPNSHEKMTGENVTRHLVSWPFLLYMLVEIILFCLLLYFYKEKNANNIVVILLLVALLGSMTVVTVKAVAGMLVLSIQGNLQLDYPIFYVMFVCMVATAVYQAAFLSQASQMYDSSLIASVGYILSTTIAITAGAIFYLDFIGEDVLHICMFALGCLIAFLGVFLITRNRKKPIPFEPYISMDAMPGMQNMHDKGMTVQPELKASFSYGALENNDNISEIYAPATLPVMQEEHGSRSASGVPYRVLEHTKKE
UniProt Q6ZMS4: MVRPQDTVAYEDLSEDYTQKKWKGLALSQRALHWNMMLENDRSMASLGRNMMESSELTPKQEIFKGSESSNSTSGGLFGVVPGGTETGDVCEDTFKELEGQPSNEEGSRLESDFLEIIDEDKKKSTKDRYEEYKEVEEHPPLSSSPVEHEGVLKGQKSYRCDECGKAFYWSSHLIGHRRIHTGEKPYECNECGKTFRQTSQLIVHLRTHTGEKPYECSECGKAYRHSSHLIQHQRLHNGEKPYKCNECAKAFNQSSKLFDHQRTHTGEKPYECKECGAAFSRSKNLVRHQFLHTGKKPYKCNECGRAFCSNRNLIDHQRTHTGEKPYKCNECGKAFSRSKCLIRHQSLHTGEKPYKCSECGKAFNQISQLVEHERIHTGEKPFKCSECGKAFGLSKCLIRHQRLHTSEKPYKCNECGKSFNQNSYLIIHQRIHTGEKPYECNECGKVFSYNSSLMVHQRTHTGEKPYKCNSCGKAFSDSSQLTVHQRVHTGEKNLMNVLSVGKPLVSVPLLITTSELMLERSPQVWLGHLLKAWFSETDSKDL
UniProt Q6IQ32: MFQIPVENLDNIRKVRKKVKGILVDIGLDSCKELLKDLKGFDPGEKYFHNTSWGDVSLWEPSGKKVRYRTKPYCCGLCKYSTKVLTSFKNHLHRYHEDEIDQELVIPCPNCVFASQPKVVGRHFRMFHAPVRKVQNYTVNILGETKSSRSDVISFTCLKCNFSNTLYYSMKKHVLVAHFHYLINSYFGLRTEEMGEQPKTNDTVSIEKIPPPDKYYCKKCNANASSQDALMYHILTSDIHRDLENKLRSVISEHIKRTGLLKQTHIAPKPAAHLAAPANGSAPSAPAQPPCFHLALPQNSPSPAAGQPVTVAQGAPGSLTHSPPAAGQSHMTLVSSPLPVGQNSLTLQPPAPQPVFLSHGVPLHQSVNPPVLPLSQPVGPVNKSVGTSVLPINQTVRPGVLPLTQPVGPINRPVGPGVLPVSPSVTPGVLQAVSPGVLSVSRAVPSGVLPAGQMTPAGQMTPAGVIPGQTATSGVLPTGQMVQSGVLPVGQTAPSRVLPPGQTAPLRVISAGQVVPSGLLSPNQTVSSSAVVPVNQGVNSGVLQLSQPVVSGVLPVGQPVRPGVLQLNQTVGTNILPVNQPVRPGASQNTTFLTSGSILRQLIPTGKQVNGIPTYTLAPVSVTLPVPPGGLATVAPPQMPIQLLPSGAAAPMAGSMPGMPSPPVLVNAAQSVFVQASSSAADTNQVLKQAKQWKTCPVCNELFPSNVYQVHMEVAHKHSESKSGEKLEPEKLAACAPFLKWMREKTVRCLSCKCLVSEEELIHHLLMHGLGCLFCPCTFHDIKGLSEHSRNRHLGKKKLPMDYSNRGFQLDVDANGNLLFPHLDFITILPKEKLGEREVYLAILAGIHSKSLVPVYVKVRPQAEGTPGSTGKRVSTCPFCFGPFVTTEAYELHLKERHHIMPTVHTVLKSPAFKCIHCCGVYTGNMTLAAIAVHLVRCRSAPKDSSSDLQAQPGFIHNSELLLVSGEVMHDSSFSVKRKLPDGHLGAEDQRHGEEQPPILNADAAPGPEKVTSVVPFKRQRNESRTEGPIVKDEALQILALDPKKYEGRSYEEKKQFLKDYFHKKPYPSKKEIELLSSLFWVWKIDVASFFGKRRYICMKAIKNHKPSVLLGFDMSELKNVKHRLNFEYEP
UniProt Q6NUQ4: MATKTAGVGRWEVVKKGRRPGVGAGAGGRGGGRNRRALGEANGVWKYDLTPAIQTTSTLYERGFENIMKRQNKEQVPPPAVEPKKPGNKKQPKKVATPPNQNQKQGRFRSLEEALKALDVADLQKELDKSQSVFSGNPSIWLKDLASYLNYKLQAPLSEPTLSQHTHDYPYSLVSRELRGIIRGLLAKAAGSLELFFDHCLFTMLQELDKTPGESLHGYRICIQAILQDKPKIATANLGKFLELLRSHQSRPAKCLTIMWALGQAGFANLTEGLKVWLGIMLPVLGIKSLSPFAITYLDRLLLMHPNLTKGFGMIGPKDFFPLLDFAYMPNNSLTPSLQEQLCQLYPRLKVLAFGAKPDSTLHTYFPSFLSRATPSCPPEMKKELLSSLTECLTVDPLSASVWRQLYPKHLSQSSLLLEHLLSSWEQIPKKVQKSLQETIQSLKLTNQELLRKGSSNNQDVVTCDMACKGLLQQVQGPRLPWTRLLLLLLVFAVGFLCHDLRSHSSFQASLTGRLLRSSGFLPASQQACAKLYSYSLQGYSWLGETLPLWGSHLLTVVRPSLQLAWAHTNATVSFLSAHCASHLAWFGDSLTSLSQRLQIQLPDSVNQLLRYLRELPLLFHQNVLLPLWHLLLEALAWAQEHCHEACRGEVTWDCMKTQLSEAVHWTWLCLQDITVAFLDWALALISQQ
UniProt Q6PKH6: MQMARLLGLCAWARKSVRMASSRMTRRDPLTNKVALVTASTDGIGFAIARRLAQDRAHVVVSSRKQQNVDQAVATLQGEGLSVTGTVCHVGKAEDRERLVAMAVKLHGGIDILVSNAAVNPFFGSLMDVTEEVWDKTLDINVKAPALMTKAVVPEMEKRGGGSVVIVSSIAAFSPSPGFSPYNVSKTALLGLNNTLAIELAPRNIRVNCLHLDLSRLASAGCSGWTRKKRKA

The list shows a part of the results. Most values lie at the level of the controls, where differences are scatter.

Compound in this test: CN[C@@H]1C[C@H]2O[C@@](C)([C@@H]1OC)n1c3ccccc3c3c4c(c5c6ccccc6n2c5c31)C(=O)NC4 [staurosporine]
Put plainly: log2 fold change of tryptic peptide abundance, ligand vs vehicle (limited proteolysis) (log2 ratio); higher = more trypsin-susceptible (destabilized). The following applies: ligand concentration: 20 uM; sample: K562 cleared lysate; digestion: 4 min, 22 C (HT-PELSA RT4min, Orbitrap Astral).
With “WWC2 (peptide sequence: LALALDEYVR, peptide start residue: 125) (UniProt Q6AWC2)”, the log2 fold change is -0.264. As for “DENND5A (peptide sequence: NGNIAGSPLHSYELLKENETIAR, peptide start residue: 449) (UniProt Q6IQ26)”, the figure is 0.833; as for “PDE12 (peptide sequence: LSLSFALADGSHK, peptide start residue: 49) (UniProt Q6L8Q7)”, -0.0645. As for “FAM219B (peptide sequence: DRAPGAAGPPSGQIGNR, peptide start residue: 25) (UniProt Q5XKK7)”, the figure is -0.124. The result for “CORO6 (peptide sequence: CEPIIMTVPR, peptide start residue: 343) (UniProt Q6QEF8)” reads 0.11.

As to “UniProt Q6PIY7 (peptide sequence: EIQLLFPQSR, peptide start residue: 187)”, the log2 fold change is -0.807.

For “DNAJC24 (peptide sequence: EYDLQRCEDDLR, peptide start residue: 77) (UniProt Q6P3W2)”, the log2 fold change was -0.418. The result for “LIN54 (peptide sequence: ADSNTTVKPAFPSGLQK, peptide start residue: 85) (UniProt Q6MZP7)” reads -0.328; that for “SCYL2 (peptide sequence: LYDVETK, peptide start residue: 149) (UniProt Q6P3W7)”, -0.143; that for “TYW3 (peptide sequence: FYNCLQHALER, peptide start residue: 188) (UniProt Q6IPR3)”, -0.207.

With “FBXL19 (peptide sequence: RKGPLPAGPPPEDVPGPPK, peptide start residue: 195) (UniProt Q6PCT2)”, the log2 fold change was -0.222. The result for “ZNF770 (peptide sequence: IQQCVVANKLPR, peptide start residue: 12) (UniProt Q6IQ21)” reads -0.159; that for “UniProt Q6NVV1 (peptide sequence: YQAVTATLEEKRK, peptide start residue: 149)”, 0.255. The result for “RPUSD3 (peptide sequence: RLHLTPSQAAQLPLHLHLHR, peptide start residue: 297) (UniProt Q6P087)” reads -0.586; that for “ZFAND6 (peptide sequence: VGLTGFECR, peptide start residue: 156) (UniProt Q6FIF0)”, -0.414; that for “MSL1 (peptide sequence: QAGIGGEPAAAGAGCSPRPK, peptide start residue: 111) (UniProt Q68DK7)”, -0.468. As for “UniProt Q6DT37 (peptide sequence: LQEAQER, peptide start residue: 526)”, the figure is -0.212; as for “UniProt Q68CQ4 (peptide sequence: ASQDPFLQHVNKELK, peptide start residue: 185)”, 0.386; as for “DHRS13 (peptide sequence: VVVVASAAHCR, peptide start residue: 165) (UniProt Q6UX07)”, -0.679. For “UniProt Q6UWZ7 (peptide sequence: KVEDSEQAVDKLVK, peptide start residue: 232)”, the log2 fold change was found to be 0.445. The result for “UniProt Q6P499 (peptide sequence: DGSHSAALK, peptide start residue: 2)” reads -0.0706; that for “MRNIP (peptide sequence: QSFLQAYGEGSGADCRR, peptide start residue: 38) (UniProt Q6NTE8)”, -0.832; that for “PWWP2B (peptide sequence: KPEEPENGEPTAAATAR, peptide start residue: 214) (UniProt Q6NUJ5)”, -0.481.

Regarding “C8orf82 (peptide sequence: RLALTMDLAPLLLAAR, peptide start residue: 199) (UniProt Q6P1X6)”, the log2 fold change was -0.219. The result for “REEP3 (peptide sequence: GYETMVNFGR, peptide start residue: 114) (UniProt Q6NUK4)” reads -0.216; that for “ZNF852 (peptide sequence: LESDFLEIIDEDKKK, peptide start residue: 110) (UniProt Q6ZMS4)”, -1.08. As for “B3GNTL1 (peptide sequence: SLHLQEGQDFLHFS, peptide start residue: 348) (UniProt Q67FW5)”, the figure is -0.0472; as for “UniProt Q6GYQ0 (peptide sequence: EEENGTNTADHVR, peptide start residue: 482)”, -1.03. As for “ADNP2 (peptide sequence: TKPYCCGLCK, peptide start residue: 70) (UniProt Q6IQ32)”, the figure is 0.183; as for “TMEM214 (peptide sequence: KGSSNNQDVVTCDMACK, peptide start residue: 453) (UniProt Q6NUQ4)”, 0.21; as for “UniProt Q6PJP8 (peptide sequence: RSDHLINTESEAVNLSK, peptide start residue: 652)”, 0.667. As to “TAF2 (peptide sequence: TLDNLNPDVR, peptide start residue: 818) (UniProt Q6P1X5)”, the log2 fold change was 0.357.

“UniProt Q6NYC8 (peptide sequence: SGHTFTVNPR, peptide start residue: 468)”: the log2 fold change was determined as 0.219. For “ADAMTSL4 (peptide sequence: VPFALPLHR, peptide start residue: 162) (UniProt Q6UY14)”, the log2 fold change came to 0.357. Turning to “SHQ1 (peptide sequence: MMAFLEK, peptide start residue: 226) (UniProt Q6PI26)”, the log2 fold change is -0.146.

In the case of “UniProt Q6PKH6 (peptide sequence: VALVTASTDGIGFAIAR, peptide start residue: 34)”, the log2 fold change turned out to be 0.339. As for “UniProt Q6P9H4 (peptide sequence: KRPTGSFNFTPAPLK, peptide start residue: 291)”, the figure is -0.00114.
